From the supplement of paper PMC8728848
The list shows a part of the results.

Key:
Test in all cases: glycan array binding signal (z-score within array); higher = stronger binding
Conditions in all cases: glycan notation: IUPAC condensed, linker removed
[1] = biological target: Neu5Ac(a2-3)Gal(b1-4)GlcNAc(b1-3)Gal(b1-4)GlcNAc(b1-2)Man(a1-3)[Neu5Ac(a2-3)Gal(b1-4)GlcNAc(b1-3)Gal(b1-4)GlcNAc(b1-2)Man(a1-6)]Man(b1-4)GlcNAc(b1-4)GlcNAc
How it was run: (§1)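 Glycan array binding is given as a within-array Z-score, which can be read as non-binding when negative. The arrays, 3228 of them, came from the Consortium for Functional Glycomics database and were retained only where the protein sequence was available. Z-scores were averaged across arrays of the same protein sequence at different concentrations or buffers and across linkers.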

[2] = biological target: Neu5Ac(a2-3)Gal(b1-4)GlcNAc(b1-3)Gal(b1-4)GlcNAc(b1-3)Gal(b1-4)GlcNAc
How it was run: as §1

[3] = biological target: Neu5Ac(a2-3)Gal(b1-4)GlcNAc(b1-3)Gal(b1-4)GlcNAc(b1-3)Gal(b1-4)GlcNAc(b1-2)Man(a1-3)[Neu5Ac(a2-3)Gal(b1-4)GlcNAc(b1-3)Gal(b1-4)GlcNAc(b1-3)Gal(b1-4)GlcNAc(b1-2)Man(a1-6)]GalNAc
How it was run: as §1

[4] = biological target: Neu5Ac(a2-3)Gal(b1-4)GlcNAc(b1-3)Gal(b1-4)GlcNAc(b1-3)GalNAc
How it was run: as §1

[5] = biological target: Neu5Ac(a2-3)Gal(b1-4)GlcNAc(b1-3)Gal(b1-4)GlcNAc(b1-3)[Neu5Ac(a2-3)Gal(b1-4)GlcNAc(b1-3)Gal(b1-4)GlcNAc(b1-6)]GalNAc
How it was run: as §1

[6] = biological target: Neu5Ac(a2-3)Gal(b1-4)GlcNAc(b1-3)Gal(b1-4)GlcNAc(b1-6)[Gal(b1-3)]GalNAc
How it was run: as §1

[7] = biological target: Neu5Ac(a2-3)Gal(b1-4)GlcNAc(b1-3)Gal(b1-4)[Fuc(a1-3)]GlcNAc
How it was run: as §1

[8] = biological target: Neu5Ac(a2-3)Gal(b1-4)GlcNAc(b1-3)GalNAc
How it was run: as §1

[9] = biological target: Neu5Ac(a2-3)Gal(b1-4)GlcNAc(b1-3)[Neu5Ac(a2-3)Gal(b1-4)GlcNAc(b1-6)]GalNAc
How it was run: as §1

[10] = biological target: Neu5Ac(a2-3)Gal(b1-4)GlcNAc(b1-6)GalNAc
How it was run: as §1

[11] = biological target: Neu5Ac(a2-3)Gal(b1-4)GlcNAc(b1-6)[Gal(b1-3)]GalNAc
How it was run: as §1

[12] = biological target: Neu5Ac(a2-3)Gal(b1-4)GlcNAc(b1-6)[Neu5Ac(a2-3)Gal(b1-3)]GalNAc
How it was run: as §1

[13] = biological target: Neu5Ac(a2-3)Gal(b1-4)GlcNAc6S
How it was run: as §1

[14] = biological target: Neu5Ac(a2-3)Gal(b1-4)[Fuc(a1-3)]GlcNAc
How it was run: as §1

[15] = biological target: Neu5Ac(a2-3)Gal(b1-4)[Fuc(a1-3)]GlcNAc(b1-2)Man
How it was run: as §1

[16] = biological target: Neu5Ac(a2-3)Gal(b1-4)[Fuc(a1-3)]GlcNAc(b1-3)Gal
How it was run: as §1

[17] = biological target: Neu5Ac(a2-3)Gal(b1-4)[Fuc(a1-3)]GlcNAc(b1-3)Gal(b1-4)GlcNAc
How it was run: as §1

[18] = biological target: Neu5Ac(a2-3)Gal(b1-4)[Fuc(a1-3)]GlcNAc(b1-3)Gal(b1-4)[Fuc(a1-3)]GlcNAc(b1-3)Gal(b1-4)[Fuc(a1-3)]GlcNAc
How it was run: as §1

[19] = biological target: Neu5Ac(a2-3)Gal(b1-4)[Fuc(a1-3)]GlcNAc(b1-3)GalNAc
How it was run: as §1

[20] = biological target: Neu5Ac(a2-3)Gal(b1-4)[Fuc(a1-3)]GlcNAc(b1-6)[Gal(b1-3)]GalNAc
How it was run: as §1

[21] = biological target: Neu5Ac(a2-3)Gal(b1-4)[Fuc(a1-3)]GlcNAc(b1-6)[Neu5Ac(a2-3)Gal(b1-3)]GalNAc
How it was run: as §1

[22] = biological target: Neu5Ac(a2-3)Gal(b1-4)[Fuc(a1-3)]GlcNAc6S
How it was run: as §1

[23] = biological target: Neu5Ac(a2-3)Gal6S(b1-4)GlcNAc
How it was run: as §1

[24] = biological target: Neu5Ac(a2-3)Gal6S(b1-4)[Fuc(a1-3)]GlcNAc
How it was run: as §1

Neu5Ac(a2-3)GalNAc = biological target: Neu5Ac(a2-3)GalNAc
How it was run: as §1

[25] = biological target: Neu5Ac(a2-3)GalNAc(b1-4)GlcNAc
How it was run: as §1

[26] = biological target: Neu5Ac(a2-3)[GalNAc(b1-4)]Gal(b1-4)Glc
How it was run: as §1

[27] = biological target: Neu5Ac(a2-3)[GalNAc(b1-4)]Gal(b1-4)GlcNAc
How it was run: as §1

[28] = biological target: Neu5Ac(a2-3)[GalNAc(b1-4)]Gal(b1-4)GlcNAc(b1-3)GalNAc
How it was run: as §1

[29] = biological target: Neu5Ac(a2-3)[Neu5Ac(a2-6)]GalNAc
How it was run: as §1

Neu5Ac(a2-6)Gal = biological target: Neu5Ac(a2-6)Gal
How it was run: as §1

[30] = biological target: Neu5Ac(a2-6)Gal(b1-3)GlcNAc(b1-3)[Gal(b1-4)GlcNAc(b1-6)]Gal(b1-4)Glc
How it was run: as §1

Neu5Ac(a2-6)Gal(b1-4)Glc = biological target: Neu5Ac(a2-6)Gal(b1-4)Glc
How it was run: as §1

[31] = biological target: Neu5Ac(a2-6)Gal(b1-4)GlcNAc
How it was run: as §1

[32] = biological target: Neu5Ac(a2-6)Gal(b1-4)GlcNAc(b1-2)Man
How it was run: as §1

[33] = biological target: Neu5Ac(a2-6)Gal(b1-4)GlcNAc(b1-2)Man(a1-3)Man(b1-4)GlcNAc(b1-4)GlcNAc
How it was run: as §1

[34] = biological target: Neu5Ac(a2-6)Gal(b1-4)GlcNAc(b1-2)Man(a1-3)[Gal(b1-4)GlcNAc(b1-2)Man(a1-6)]Man(b1-4)GlcNAc(b1-4)GlcNAc
How it was run: as §1

[35] = biological target: Neu5Ac(a2-6)Gal(b1-4)GlcNAc(b1-2)Man(a1-3)[GlcNAc(b1-2)Man(a1-6)]Man(b1-4)GlcNAc(b1-4)GlcNAc
How it was run: as §1

B1: RsaA-N-term (Caulobacter crescentus), P35828 (protein)
chain: MAYTTAQLVTAYTNANLGKAPDAATTLTLDAYATQTQTGGLSDAAALTNTLKLVNSTTAVAIQTYQFFTGVAPSAAGLDFLVDSTTNTNDLNDAYYSKFAQENRFINFSINLATGAGAGATAFAAAYTGVSYAQTVATAYDKIIGNAVATAAGVDVAAAVAFLSRQANIDYLTAFVRANTPFTAAADIDLAVKAALIGTILNAATVSGIGGYATATAAMINDLSDGALSTDNAAGVNLFTAYPSSGVSGSTLSLTTGTDTLTGTANNDTFVAGEVAGDGSGWSHPQFEKGG
Question: For B1, which “glycan array binding signal (z-score)” value [1] is on record?
Answer: 0.639

Question: What about the “glycan array binding signal (z-score)” value [2] of the same binder?
Answer: 0.059

Question: And the “glycan array binding signal (z-score)” value [3]?
Answer: -0.725

Question: What about the “glycan array binding signal (z-score)” value [4] of the same binder?
Answer: -1.2

Question: And the “glycan array binding signal (z-score)” value [5]?
Answer: -0.649

Question: What about the “glycan array binding signal (z-score)” value [6] of the same binder?
Answer: -0.672

Question: And the “glycan array binding signal (z-score)” value [7]?
Answer: -0.112

Question: What about the “glycan array binding signal (z-score)” value [8] of the same binder?
Answer: 1.31

Question: What about the “glycan array binding signal (z-score)” value [9] of the same binder?
Answer: -0.25

Question: What about the “glycan array binding signal (z-score)” value [10] of the same binder?
Answer: -0.037

Question: And the “glycan array binding signal (z-score)” value [11]?
Answer: -0.144

Question: And the “glycan array binding signal (z-score)” value [12]?
Answer: 1.32

Question: And the “glycan array binding signal (z-score)” value [13]?
Answer: 0.853

Question: What about the “glycan array binding signal (z-score)” value [14] of the same binder?
Answer: -0.885

Question: And the “glycan array binding signal (z-score)” value [15]?
Answer: 0.103

Question: What about the “glycan array binding signal (z-score)” value [16] of the same binder?
Answer: -0.573

Question: And the “glycan array binding signal (z-score)” value [17]?
Answer: -0.577

Question: And the “glycan array binding signal (z-score)” value [18]?
Answer: 0.776

Question: And the “glycan array binding signal (z-score)” value [19]?
Answer: 0.296

Question: And the “glycan array binding signal (z-score)” value [20]?
Answer: 0.034

Question: And the “glycan array binding signal (z-score)” value [21]?
Answer: -0.11

Question: And the “glycan array binding signal (z-score)” value [22]?
Answer: -0.677

Question: What about the “glycan array binding signal (z-score)” value [23] of the same binder?
Answer: -1.01

Question: What about the “glycan array binding signal (z-score)” value [24] of the same binder?
Answer: -0.538

Question: And the “glycan array binding signal (z-score)” value (Neu5Ac(a2-3)GalNAc)?
Answer: -0.52

Question: And the “glycan array binding signal (z-score)” value [25]?
Answer: -0.215

Question: And the “glycan array binding signal (z-score)” value [26]?
Answer: -0.84

Question: What about the “glycan array binding signal (z-score)” value [27] of the same binder?
Answer: -0.146

Question: What about the “glycan array binding signal (z-score)” value [28] of the same binder?
Answer: -1.15

Question: What about the “glycan array binding signal (z-score)” value [29] of the same binder?
Answer: 0.104

Question: And the “glycan array binding signal (z-score)” value (Neu5Ac(a2-6)Gal)?
Answer: -0.678

Question: And the “glycan array binding signal (z-score)” value [30]?
Answer: -0.614

Question: And the “glycan array binding signal (z-score)” value (Neu5Ac(a2-6)Gal(b1-4)Glc)?
Answer: -0.143

Question: And the “glycan array binding signal (z-score)” value [31]?
Answer: -0.808

Question: And the “glycan array binding signal (z-score)” value [32]?
Answer: -0.33

Question: What about the “glycan array binding signal (z-score)” value [33] of the same binder?
Answer: -0.875

Question: And the “glycan array binding signal (z-score)” value [34]?
Answer: -0.036

Question: What about the “glycan array binding signal (z-score)” value [35] of the same binder?
Answer: -1.17
